Series [1] is described as follows: Endotoxin clearance from Lysozyme solution, detergent wash on cation exchange (SP Fast Flow). To be noted: 1% detergent wash. Also on record: species or system E. coli.
The nature of series [2]: Endotoxin clearance from mAb solution, detergent wash on protein-A affinity (MabSelectSuRe). Also on record: species or system E. coli. The conditions noted are these: 1% detergent wash.
Series [3] deals with Host Cell Protein (HCP). In words: HCP clearance, detergent wash on LambdaFabSelect column, HCP ELISA. Also on record: species or system CHO. The conditions noted are these: 1% detergent wash.
In series [4] the test system is Host Cell Protein (HCP). In words: HCP clearance, detergent spiked into cell harvest material before LambdaFabSelect column, HCP ELISA. Also noted: species or system CHO.

As for `CCCCCCCCCCCCOCCOCCOCCOCCOCCOCCOCCOCCOCCO` [Brij L9, 3,6,9,12,15,18,21,24,27-nonaoxanonatriacontan-1-ol], the entries for the “Normalized Eluate Yield” value in series [1] and in series [2] were 0.8 and 1.02, respectively. Moreover, the Endotoxin in series [1] (starting endotoxin 717, listed as Brij-L9) is on record as 0.39 EU/mg; in series [2] (starting endotoxin 1911), “below 1 EU/mg”; in series [2] (starting endotoxin 1911, listed as Brij-L9) it was 0.88 EU/mg.
With `CCCCCCCCCCCCOCCOCCOCCOCCOCCOCCOCCOCCOCCO` [Laureth-9, 3,6,9,12,15,18,21,24,27-nonaoxanonatriacontan-1-ol], the Endotoxin entry in series [1] (starting endotoxin 717) was “below 1 EU/mg”.
Regarding Triton X-100 [reference compound], the HCP in the series on Host Cell Protein (HCP) [3] (LambdaFabSelect eluate) came out at 1856 ng/mg; in the series with Host Cell Protein (HCP) [4] (2% detergent spike into cell harvest, LambdaFabSelect eluate), 1099 ng/mg. Besides, the “Normalized Eluate Yield” value in the series with Host Cell Protein (HCP) [3] (normalized to 0.5M NaCl wash control) is given as 1.00; in the series with Host Cell Protein (HCP) [4] (2% detergent spike, normalized to no detergent spike control) it was 1.0.

The record behind these values is patent publication US20240327454A1, “DETERGENT AND METHOD FOR PURIFYING A BIOTHERAPEUTIC” (MEDIMMUNE, LLC, priority 2020, published 2024).
